According to PubChem BioAssay AID328 (DTP/NCI, 2004):
The list is a part of this screen's results and no random one: it gathers tests that were run many times, whatever their T/C, doses with no T/C, and many T/C values between a quarter and a half above the control. Further doses and runs are listed elsewhere. T/C is the treated group as % of the vehicle group. Some doses have a count of surviving animals in place of a T/C: the source holds a T/C of zero for them, seemingly a mark for toxic or unscored doses. Some survivor counts are full or nearly so, which does not show that the dose was tolerated: survival well below the control is almost never listed, so the zero probably covers shortened survival too. Survivors were counted at the toxicity check, usually on the fifth day, unless a day is given; later deaths do not show. Schedules are NCI's codes, read here as Q, the interval in days (D) or hours (H), X, the number of doses. Where survival is the endpoint, this PubChem deposit counts one and a half times the control or more as active, and values a quarter to a half above the control carry no call in these data; other NCI protocols may use other cut-offs. Some entries were tested several times; the values are given in rising order. Some T/C values carry the count of animals alive at the toxicity check (mostly the fifth day); without a count, all were alive then.

System: BDF1 mice, P388 leukemia ip, median survival T/C
Test: NCI In Vivo Anticancer Drug Screen. Data for tumor model P388 Leukemia (intraperitoneal) in B6D2F1 (BDF1) mice
Conditions: T/C endpoint: median survival time, higher T/C = longer survival
Summary of the method: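 In tumour-bearing mice, survival after compound treatment is set against the vehicle group and given as a quotient.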

[1] = dose: 50.0 mg/kg/injection, schedule: Q01DX009 (ip), vehicle: saline with Tween-80
[2] = dose: 100.0 mg/kg/injection, schedule: Q01DX009 (ip), vehicle: saline with Tween-80
[3] = dose: 200.0 mg/kg/injection, schedule: Q01DX009 (ip), vehicle: saline with Tween-80
[4] = dose: 400.0 mg/kg/injection, schedule: Q04DX003 (ip), vehicle: saline with Tween-80
[5] = dose: 25.0 mg/kg/injection, schedule: Q01DX009 (ip), vehicle: saline with Tween-80
[6] = dose: 400.0 mg/kg/injection, schedule: Q04DX003 (ip), vehicle: Klucel (hydroxypropylcellulose) (HPC)

`S=c1cc(-c2ccccc2)ss1` was tested, and the survivor count [1] was 2 of 6, the survivor count [2] was 6 of 6 and the survivor count [3] was 6 of 6. For the same molecule, the survivor count (dose: 400.0 mg/kg/injection, schedule: Q01DX009 (ip), vehicle: saline with Tween-80) was 4 of 6 and the T/C [4] was 130 % of control.

For `Nc1nc(N)c2cc(CNc3ccc(C(=O)NC(CC(=O)O)C(=O)O)cc3)ccc2n1` (stereo not given), the T/C (dose: 0.17 mg/kg/injection, schedule: Q01DX009 (ip), vehicle: saline) was 125 % of control, the T/C (dose: 0.25 mg/kg/injection, schedule: Q01DX009 (ip), vehicle: saline) was 137 and 141 % of control and the T/C (dose: 1.0 mg/kg/injection, schedule: Q01DX009 (ip), vehicle: saline) was 141 % of control. The survivor count (dose: 2.0 mg/kg/injection, schedule: Q01DX009 (ip), vehicle: saline) was 6 of 6, the survivor count (dose: 4.0 mg/kg/injection, schedule: Q04DX003 (ip), vehicle: saline sonified) was 6 of 6 and the survivor count (dose: 8.0 mg/kg/injection, schedule: Q04DX003 (ip), vehicle: saline sonified) was 4 of 6. For the same molecule, the survivor count (dose: 12.5 mg/kg/injection, schedule: Q01DX009 (ip), vehicle: saline) was 5 of 6, the T/C (dose: 18.75 mg/kg/injection, schedule: Q04DX003 (ip), vehicle: saline sonified) was 133 % of control and the survivor count (dose: 25.0 mg/kg/injection, schedule: Q01DX009 (ip), vehicle: saline) was 4 of 6. For the same molecule, the survivor count (dose: 50.0 mg/kg/injection, schedule: Q04DX003 (ip), vehicle: saline sonified) was 6 of 6.

`Nc1ccc(OC(=O)Oc2ccc(N)cc2)cc1` was tested, and the survivor count (dose: 600.0 mg/kg/injection, schedule: Q01DX009 (ip), vehicle: saline with Tween-80) was 0 of 6.

For `Clc1ccc2nncn2n1`, the survivor count [5] was 7 of 7, the survivor count [1] was 7 of 7 and the survivor count [2] was 7 of 7.

With `C[CH2][Pb]([CH2]C)([CH2]C)[O]C(=O)COc1ccccc1` the T/C (dose: 1.5 mg/kg/injection, schedule: Q01DX009 (ip), vehicle: Klucel (hydroxypropylcellulose) (HPC)) was 132 % of control, the T/C (dose: 3.0 mg/kg/injection, schedule: Q01DX009 (ip), vehicle: Klucel (hydroxypropylcellulose) (HPC)) was 125 % of control [5 of 6 alive] and the T/C (dose: 3.0 mg/kg/injection, schedule: Q04DX003 (ip), vehicle: saline with Tween-80) was 137 % of control. The T/C (dose: 3.12 mg/kg/injection, schedule: Q01DX009 (ip), vehicle: saline with Tween-80) was 137 and 138 % of control, the T/C (dose: 6.0 mg/kg/injection, schedule: Q04DX003 (ip), vehicle: saline with Tween-80) was 145 % of control and the survivor count (dose: 12.0 mg/kg/injection, schedule: Q01DX009 (ip), vehicle: Klucel (hydroxypropylcellulose) (HPC)) was 2 of 6. The survivor count (dose: 12.5 mg/kg/injection, schedule: Q01DX009 (ip), vehicle: saline with Tween-80) was 2 of 6 and the survivor count [5] was 0 of 6.

For `COc1cc(C=C2C(=O)C=CC2=O)ccc1O`, the survivor count [5] was 0 of 6.

In the case of `COC(=O)c1nc2c(n(C)/c1=N/C(=O)Nc1ccccc1)CCCC2`, the T/C [1] is reported as 135 % of control, the T/C [2] is reported as 134 % of control [5 of 6 alive] and the survivor count [3] is reported as 4 of 6.

`N/C(=N\O)c1cn(C2OC(CO)C(O)C2O)c2ncnc(N)c12` (stereo not given) was tested, and the T/C (dose: 0.3 mg/kg/injection, schedule: Q01DX009 (ip), vehicle: Klucel (hydroxypropylcellulose) (HPC)) was 136 % of control.

For `Cc1ccc(Cl)cc1O`, the survivor count [3] was 5 of 6, the T/C (dose: 200.0 mg/kg/injection, schedule: Q04DX003 (ip), vehicle: alcohol) was 127 % of control and the survivor count (dose: 300.0 mg/kg/injection, schedule: Q04DX003 (ip), vehicle: alcohol) was 6 of 6. The survivor count (dose: 450.0 mg/kg/injection, schedule: Q04DX003 (ip), vehicle: alcohol) was 1 of 6.

In the case of `COc1cc2c(cc1OC)C(c1ccc(N=Cc3ccc(N(C)C)cc3)cc1)N(C(=S)Nc1cc(Cl)ccc1Cl)CC2` (stereo not given), the survivor count [2] is reported as 6 of 6.

For `COC(=O)c1cc(=O)n(-c2cccc(F)c2)c(SC)n1`, the survivor count [6] was 0 of 6.

With `CCS(=O)c1ncc2cnccn12` (stereo not given) the survivor count (dose: 12.5 mg/kg/injection, schedule: Q04DX003 (ip), vehicle: water) was 6 of 6, the survivor count (dose: 25.0 mg/kg/injection, schedule: Q01DX009 (ip), vehicle: water) was 5 of 6 and the survivor count (dose: 25.0 mg/kg/injection, schedule: Q04DX003 (ip), vehicle: water) was 6 of 6. The survivor count (dose: 50.0 mg/kg/injection, schedule: Q04DX003 (ip), vehicle: water) was 6 of 6, the survivor count (dose: 100.0 mg/kg/injection, schedule: Q04DX003 (ip), vehicle: water) was 3 of 6 and the survivor count (dose: 200.0 mg/kg/injection, schedule: Q01DX009 (ip), vehicle: water) was 1 of 6. For the same molecule, the survivor count (dose: 200.0 mg/kg/injection, schedule: Q04DX003 (ip), vehicle: water) was 0 of 6.

With `CC[CH2][Pb]([CH2]CC)([CH2]CC)[O]C(=O)C(Cl)(Cl)Cl` the survivor count [5] was 0 of 6.

In the case of `O=C(O)c1ccc(CCCC2CCCC2)cc1`, the survivor count [6] is reported as 4 of 6.

With `Oc1ccc(C2N(c3ccccc3)CCN2c2ccccc2)cc1` the survivor count [4] was 0 of 6.

For `Cc1cc(N(CCCl)CCCl)c(C)cc1NC(=O)c1ccccc1`, the survivor count [5] was 5 of 6 and the survivor count [1] was 5 of 6.

`CCOC(=O)c1c[nH]c2cc(C(F)(F)F)ccc2c1=O` was tested, and the survivor count (dose: 50.0 mg/kg/injection, schedule: Q04DX003 (ip), vehicle: gum acacia) was 6 of 6, the survivor count (dose: 100.0 mg/kg/injection, schedule: Q04DX003 (ip), vehicle: gum acacia) was 6 of 6 and the survivor count (dose: 200.0 mg/kg/injection, schedule: Q04DX003 (ip), vehicle: gum acacia) was 6 of 6. The survivor count (dose: 400.0 mg/kg/injection, schedule: Q04DX003 (ip), vehicle: gum acacia) was 6 of 6.

For `Cc1cc[n+]2cc3c(ccc4ccccc43)c(C)c2c1`, the T/C (dose: 6.25 mg/kg/injection, schedule: Q01DX010 (ip), vehicle: carboxymethylcellulose (CMC)) was 130 % of control and the survivor count (dose: 50.0 mg/kg/injection, schedule: Q01DX010 (ip), vehicle: carboxymethylcellulose (CMC)) was 3 of 6.

With `N#[N+]c1cnc([O-])[nH]c1=O` the T/C (dose: 1.25 mg/kg/injection, schedule: Q01DX010 (ip), vehicle: saline) was 145 % of control and the T/C (dose: 2.5 mg/kg/injection, schedule: Q01DX010 (ip), vehicle: saline) was 145 % of control.

For `CCN(CC)CCNC1=CC(=S)NC(C)(C)C1`, the T/C [2] was 144 % of control.

For `COc1cc(C=Nc2cc(Br)c(O)c(Br)c2)ccc1N(CCCl)CCCl`, the T/C (dose: 2.3 mg/kg/injection, schedule: Q04DX003 (ip), vehicle: Klucel (hydroxypropylcellulose) (HPC)) was 127 % of control, the T/C (dose: 6.1 mg/kg/injection, schedule: Q01DX009 (ip), vehicle: Klucel (hydroxypropylcellulose) (HPC)) was 129 % of control and the T/C (dose: 9.37 mg/kg/injection, schedule: Q01DX009 (ip), vehicle: Klucel (hydroxypropylcellulose) (HPC)) was 141 % of control. For the same molecule, the T/C (dose: 14.1 mg/kg/injection, schedule: Q01DX009 (ip), vehicle: Klucel (hydroxypropylcellulose) (HPC)) was 136 % of control, the T/C (dose: 18.75 mg/kg/injection, schedule: Q01DX009 (ip), vehicle: Klucel (hydroxypropylcellulose) (HPC)) was 140 % of control and the survivor count (dose: 28.12 mg/kg/injection, schedule: Q04DX003 (ip), vehicle: Klucel (hydroxypropylcellulose) (HPC)) was 2 of 6. The survivor count (dose: 75.0 mg/kg/injection, schedule: Q04DX003 (ip), vehicle: Klucel (hydroxypropylcellulose) (HPC)) was 6 of 6.

With `OCC1OC(n2cnc3c(SCc4ccccc4)nc(NO)nc32)C(O)C1O` (stereo not given) the T/C (dose: 50.0 mg/kg/injection, schedule: Q01DX009 (ip), vehicle: acetone) was 136 % of control and the T/C (dose: 100.0 mg/kg/injection, schedule: Q01DX009 (ip), vehicle: acetone) was 142 % of control.

With `C1CCNCC1.COc1ccccc1C(=O)[CH-]C(=O)C(F)(F)F.COc1ccccc1C(=O)[CH-]C(=O)C(F)(F)F.COc1ccccc1C(=O)[CH-]C(=O)C(F)(F)F.COc1ccccc1C(=O)[CH-]C(=O)C(F)(F)F.[Eu+3]` the T/C (dose: 200.0 mg/kg/injection, schedule: Q01DX009 (ip), vehicle: saline) was 126 % of control.

`CSC(=S)NN=C1CCCC1` was tested, and the survivor count [1] was 4 of 6, the survivor count [2] was 1 of 6 and the survivor count [3] was 0 of 6.

With `CSc1nc(N)c2c(C(N)=O)cc(=O)[nH]c2n1` the survivor count (dose: 400.0 mg/kg/injection, schedule: Q04DX002 (ip), vehicle: saline with Tween-80) was 6 of 6.

With `CC(C)=CCNc1ncnc2c1ncn2C1OC(CO)C(O)C1O` (stereo not given) the survivor count [4] was 2 of 6.

With `Clc1ccc(C2(C3CCNCC3)CCCO2)cc1` (stereo not given) the survivor count [3] was 0 of 6.
